For this assay, the target named is N-His-Cas7fv of Shewanella putrefaciens CN-32 (Shewanella putrefaciens CN-32). As to the kind of experiment: co-purification (Ni-NTA affinity chromatography, then SEC); Cascade components and crRNA co-expressed in E. coli; His-tag on Cas7fv (I-Fv) or Cas7f (I-F); HisTrap HP, then HiLoad 16/600 Superdex 200 pg; complex formation corroborated by SDS-PAGE, Urea-PAGE and mass spectrometry.

These are yes or no findings as the source states them, for the method shown. Binding seen in cells or lysates may run through a third protein. A result given as binding can be weak or reduced; the word gives no strength.

B1: Cas6f of Shewanella putrefaciens CN-32 (protein, UniProt A0ABX8XGP4 1-224)
chain: MKYYLDITLLPDAEANLGFLWHKVYQQIHLMLVEHKVSVENSAIGLSFPKYDAKSFSDNTKFPLGDKLRLFAGTEQQLADLKVAQWLARLADYVHIKAIKAVPDNVSEYAYFKRRHFKSPDKLRRNIDARAIVIAQKNGFDINEVKTRLLASIDNLDTKSKLPFINLRSLSTEKDVSPADRRKFLLFIECEKVTKPSQNNGLFNCYGLSRRAQTEQAAVPWFEG
Consider B1, for which the binding entry was “binds”.

These data come from article PMC7266957.
